Reference: US20200360400A1, “COMPOSITIONS AND METHODS FOR THE TREATMENT OF ADDICTION, PSYCHIATRIC DISORDERS, AND NEURODEGENERATIVE DISEASE” (Embera NeuroTherapeutics, Inc., priority 2017, published 2020)
At least one compound was matched to its structure with a doubt left. Some entries share one result that the patent states for a list of compounds.

Experiments:
adult male Wistar rats [1] = assay: Cue-induced reinstatement of extinguished cocaine seeking; format: in vivo, rat; conditions: pretreatment with the drug alone, general statement
Protocol: The experiments described herein were designed to investigate whether or not drug combinations identified as effective in reducing cocaine self-administration would also block the ability of conditioned cues to reinstate extinguished cocaine-seeking behavior. Adult male Wistar rats were implanted with chronic jugular catheters and trained to self-administer cocaine (0.25 mg/kg/infusion) by pressing one of the response levers in the experimental chamber (i.e., the “active” or “cocaine” lever) under a fixed-ratio four (FR4) schedule of reinforcement during daily 2-hour sessions conducted 5 days per week. At the start of each session, both levers were extended into the chamber and the stimulus light above the active lever was illuminated to indicate the availability of cocaine. […] A 20-second timeout period followed each infusion. The stimulus light above the active lever and the house light and tone compound stimulus were extinguished during the timeout period, and the light above the active lever was illuminated once the timeout ended. When responding on the active lever varied less than 20% for two consecutive days, the response requirement was increased to FR2. When similar stability was observed under the FR2 schedule or reinforcement, the response requirement was increased to the final ratio of four. […]

adult male Wistar rats [2] = assay: Intravenous cocaine self-administration under a multiple, alternating schedule of food reinforcement and cocaine self-administration; format: in vivo, rat; conditions: for cocaine self-administration: pretreatment with the drug alone, general statement; for cocaine self-administration (number of cocaine infusions) / food-maintained responding: ip
male Wistar rats = assay: Forced Swim Test (FST), animal model of depression; conditions: acute and chronic administration, alone and in combination; oxazepam 5 or 10, metyrapone 25 or 50 mg/kg
[3] = low, ineffective dose of the drug alone

SMILES	reinstatement of extinguished cocaine seeking (adult male Wistar rats [1])	cocaine self-administration (adult male Wistar rats [2])	immobility in the FST (male Wistar rats)	cocaine self-administration as percentage of baseline self-administration (adult male Wistar rats [2]; high dose alone, FIG. 1B)	cocaine self-administration (number of cocaine infusions) (adult male Wistar rats [2]; high dose of the drug alone)	food-maintained responding (adult male Wistar rats [2]; high dose of the drug alone)	cocaine self-administration (number of cocaine infusions) (adult male Wistar rats [2]; [3])	food-maintained responding (adult male Wistar rats [2]; [3])	cocaine self-administration (adult male Wistar rats [2]; listed as Oxazepam)
CNC1=Nc2ccc(Cl)cc2C(c2ccccc2)=[N+]([O-])C1 [chlordiazepoxide]	decrease	decrease							
O=C1Nc2ccc(Cl)cc2C(c2ccccc2)=NC1O (centres unmarked) [oxazepam]	decrease	decrease	effective in reducing immobility	less than 50%	reduced cocaine self-administration	without affecting food-maintained responding	did not significantly affect	did not significantly affect	dose-dependently decreased
